These results are taken from patent publication US20040058368A1 (PENN STATE RESEARCH FOUNDATION, published 2004).

Test [1] deals with T1, Myr-Hom3p (Saccharomyces cerevisiae (yeast)) (UniProt P10869).
T1 sequence (chain, N-myristoylation signal at the N terminus): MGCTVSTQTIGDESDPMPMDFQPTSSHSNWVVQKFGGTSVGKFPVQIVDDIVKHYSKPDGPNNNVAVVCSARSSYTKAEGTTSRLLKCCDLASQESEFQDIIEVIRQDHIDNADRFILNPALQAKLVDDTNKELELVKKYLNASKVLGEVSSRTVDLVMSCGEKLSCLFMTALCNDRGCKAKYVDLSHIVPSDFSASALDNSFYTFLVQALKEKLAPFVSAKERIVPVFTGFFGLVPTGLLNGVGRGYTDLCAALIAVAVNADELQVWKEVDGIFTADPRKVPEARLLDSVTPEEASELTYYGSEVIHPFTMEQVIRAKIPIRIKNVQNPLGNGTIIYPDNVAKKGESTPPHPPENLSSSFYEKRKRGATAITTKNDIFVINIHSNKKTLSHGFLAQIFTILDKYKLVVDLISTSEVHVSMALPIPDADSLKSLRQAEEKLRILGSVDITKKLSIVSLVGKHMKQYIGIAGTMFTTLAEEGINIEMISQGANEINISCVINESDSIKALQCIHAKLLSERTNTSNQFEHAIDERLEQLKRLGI
As to the kind of experiment: 80-Trap HIS3 reporter growth assay in yeast.

Test [2] concerns the target T2, Myr-TAF145 (Saccharomyces cerevisiae (yeast)) (UniProt P46677).
T2 sequence (chain, N-myristoylation signal at the N terminus): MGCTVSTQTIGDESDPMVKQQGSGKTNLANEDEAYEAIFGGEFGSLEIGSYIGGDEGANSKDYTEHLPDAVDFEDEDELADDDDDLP
Kind of test: 80-Trap HIS3 reporter growth assay in yeast.

These are yes or no findings as the source states them, for the method shown. Some results given as binding are weak or reduced against the parent protein; the word gives no strength. Where a sequence is shown, tags or fusion partners need not be part of it.

With “Gal80-Fpr1p fusion (from UniProt P04387 1-435; P20081 1-114)”, the binding entry in test [1] is listed as “binds”.

B1: Gal80-TBP (protein, UniProt P04387 1-435, looked up)
chain: MDYNKRSSVSTVPNAAPIRVGFVGLNAAKGWAIKTHYPAILQLSSQFQITALYSPKIETSIATIQRLKLSNATAFPTLESFASSSTIDMIVIAIQVASHYEVVMPLLEFSKNNPNLKYLFVEWALACSLDQAESIYKAAAERGVQTIISLQGRKSPYILRAKELISQGYIGDINSIEIAGNGGWYGYERPVKSPKYIYEIGNGVDLVTTTFGHTIDILQYMTSSYFSRINAMVFNNIPEQELIDERGNRLGQRVPKTVPDHLLFQGTLLNGNVPVSCSFKGGKPTKKFTKNLVIDIHGTKGDLKLEGDAGFAEISNLVLYYSGTRANDFPLANGQQAPLDPGYDAGKEIMEVYHLRNYNAIVGNIHRLYQSISDFHFNTKKIPELPSQFVMQGFDFEGFPTLMDALILHRLIESVYKSNMMGSTLNVSNISHYSLMADEERLKEFKEANKIVFDPNTRQVWENQNRDGTKPATTFQSEEDIKRAAPESEKDTSATSGIVPTLQNIVATVTLGCRLDLKTVALHARNAEYNPKRFAAVIMRIREPKTTALIFASGKMVVTGAKSEDDSKLASRKYARIIQKIGFAAKFTDFKIQNIVGSCDVKFPIRLEGLAFSHGTFSSYEPELFPGLIYRMVKPKIVLLIFVSGKIVLTGAKQREEIYQAFEAIYPVLSEFRKM
Regarding B1, the binding result in test [2] is given as “binds”.
